Measurements from publication PMC13598120.
Results are given in words; binding and its absence hold for the method and conditions named. In cells and extracts the contact can be indirect. Some binding calls cover weakened binding; strength is not graded here. For some assays here: Where a sequence is shown, tags or fusion partners need not be part of it. Each block holds one binder with its values, some of them ahead of it.

Protein sequences, listed by entry. Tags and fused reporters are not part of them.
UniProt P54132: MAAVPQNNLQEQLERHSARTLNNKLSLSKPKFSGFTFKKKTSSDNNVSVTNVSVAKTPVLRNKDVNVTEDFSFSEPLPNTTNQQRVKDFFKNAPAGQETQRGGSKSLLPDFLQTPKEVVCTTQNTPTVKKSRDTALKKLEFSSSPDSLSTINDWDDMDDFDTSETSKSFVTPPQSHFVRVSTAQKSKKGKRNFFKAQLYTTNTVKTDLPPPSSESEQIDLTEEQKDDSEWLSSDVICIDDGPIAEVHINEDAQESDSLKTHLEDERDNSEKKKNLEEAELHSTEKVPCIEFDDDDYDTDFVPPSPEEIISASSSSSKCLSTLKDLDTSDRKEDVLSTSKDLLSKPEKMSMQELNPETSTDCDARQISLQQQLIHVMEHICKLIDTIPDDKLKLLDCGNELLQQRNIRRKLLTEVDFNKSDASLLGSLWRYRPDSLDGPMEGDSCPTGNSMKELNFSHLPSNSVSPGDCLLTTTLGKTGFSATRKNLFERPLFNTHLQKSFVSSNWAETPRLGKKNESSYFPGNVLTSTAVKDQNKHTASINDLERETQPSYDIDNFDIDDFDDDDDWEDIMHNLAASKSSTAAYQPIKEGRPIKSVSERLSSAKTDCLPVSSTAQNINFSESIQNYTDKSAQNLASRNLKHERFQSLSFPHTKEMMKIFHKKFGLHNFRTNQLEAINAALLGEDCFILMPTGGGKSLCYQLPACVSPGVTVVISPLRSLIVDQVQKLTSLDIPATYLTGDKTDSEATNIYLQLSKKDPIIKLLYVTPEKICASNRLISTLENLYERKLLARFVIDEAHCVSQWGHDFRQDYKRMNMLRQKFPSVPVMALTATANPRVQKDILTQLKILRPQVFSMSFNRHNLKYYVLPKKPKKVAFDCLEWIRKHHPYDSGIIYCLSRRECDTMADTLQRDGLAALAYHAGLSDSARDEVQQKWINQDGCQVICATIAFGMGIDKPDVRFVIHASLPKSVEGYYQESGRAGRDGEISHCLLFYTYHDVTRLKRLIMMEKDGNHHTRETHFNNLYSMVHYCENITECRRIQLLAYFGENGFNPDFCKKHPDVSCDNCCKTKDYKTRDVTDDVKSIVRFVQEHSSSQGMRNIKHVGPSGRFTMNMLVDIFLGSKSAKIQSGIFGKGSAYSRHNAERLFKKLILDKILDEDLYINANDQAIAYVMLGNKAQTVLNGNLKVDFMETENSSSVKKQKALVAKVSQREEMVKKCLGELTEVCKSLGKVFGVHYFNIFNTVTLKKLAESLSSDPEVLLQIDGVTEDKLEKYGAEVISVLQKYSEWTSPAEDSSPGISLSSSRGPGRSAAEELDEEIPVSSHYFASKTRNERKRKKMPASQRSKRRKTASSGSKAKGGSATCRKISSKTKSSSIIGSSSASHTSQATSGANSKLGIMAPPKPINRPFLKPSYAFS
UniProt Q9H4L4: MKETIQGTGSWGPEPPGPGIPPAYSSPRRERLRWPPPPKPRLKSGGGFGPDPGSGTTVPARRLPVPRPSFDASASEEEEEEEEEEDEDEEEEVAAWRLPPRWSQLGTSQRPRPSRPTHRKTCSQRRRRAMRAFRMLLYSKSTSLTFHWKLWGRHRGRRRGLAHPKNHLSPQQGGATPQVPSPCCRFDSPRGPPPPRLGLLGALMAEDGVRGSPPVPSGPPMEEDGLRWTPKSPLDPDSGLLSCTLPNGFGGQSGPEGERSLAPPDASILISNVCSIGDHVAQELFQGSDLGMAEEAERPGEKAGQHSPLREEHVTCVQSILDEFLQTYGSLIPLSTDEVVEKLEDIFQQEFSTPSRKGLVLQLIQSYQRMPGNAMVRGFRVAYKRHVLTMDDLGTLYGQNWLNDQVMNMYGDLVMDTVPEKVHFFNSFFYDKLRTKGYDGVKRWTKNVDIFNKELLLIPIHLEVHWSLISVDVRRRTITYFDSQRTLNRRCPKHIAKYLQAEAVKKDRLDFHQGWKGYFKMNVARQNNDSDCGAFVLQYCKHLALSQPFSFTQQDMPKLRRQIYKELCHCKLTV

Experiments:
[1] = molecular target: T1, Flag-tagged GNL3 (Flag-GNL3), wild type (human) (UniProt Q9BVP2); assay: co-IP; anti-Flag (M2) agarose beads, 4 C, 4 h, on lysates of transfected U2OS cells; NP40 lysis buffer (50 mM Tris-HCl pH 8.0, 0.5% NP-40, 1 mM EDTA, 150 mM NaCl) with 20 mM NEM and 5 mM IAA; DMSO or 20 uM ETO; USP36 siRNA in one experiment; immunoblot
T1 sequence: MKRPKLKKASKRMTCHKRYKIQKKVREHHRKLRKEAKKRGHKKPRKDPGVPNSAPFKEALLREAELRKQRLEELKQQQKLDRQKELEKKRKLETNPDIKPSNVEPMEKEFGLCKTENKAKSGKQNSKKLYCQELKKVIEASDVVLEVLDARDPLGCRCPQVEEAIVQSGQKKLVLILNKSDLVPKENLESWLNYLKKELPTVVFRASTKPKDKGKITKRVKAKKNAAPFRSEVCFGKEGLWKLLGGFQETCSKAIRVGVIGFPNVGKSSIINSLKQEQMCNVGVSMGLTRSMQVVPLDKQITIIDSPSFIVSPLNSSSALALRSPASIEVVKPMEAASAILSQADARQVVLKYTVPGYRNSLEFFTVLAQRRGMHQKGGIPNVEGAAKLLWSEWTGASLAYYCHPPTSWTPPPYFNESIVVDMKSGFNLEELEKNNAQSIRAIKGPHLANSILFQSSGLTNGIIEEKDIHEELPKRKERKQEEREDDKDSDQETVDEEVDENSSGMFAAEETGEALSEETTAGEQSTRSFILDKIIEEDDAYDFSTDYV

Flag-BLM, wild type [2] = molecular target: Flag-BLM, wild type (UniProt P54132); assay: as above
Flag-SENP3 [3] = molecular target: Flag-SENP3 (UniProt Q9H4L4); assay: co-IP; 293 cells transfected with the Flag-tagged protein; co-IP using anti-Flag antibody; immunoblot
Flag-BLM, wild type [4] = molecular target: Flag-BLM, wild type (UniProt P54132); assay: proximity ligation; Duolink PLA on fixed U2OS cells transfected with Flag-GNL3 or Flag-BLM (WT or mutants); DMSO or 20 uM ETO for 2 h; in one experiment with knock-down of endogenous GNL3 and siRNA-resistant Flag-GNL3
Flag-SENP3 [5] = molecular target: Flag-SENP3 (UniProt Q9H4L4); assay: co-IP; co-IP with RNase treatment (Supplementary Figs. S8b, S9a, b; legends not shown)

binding [1]: binds
B1: DNA2 (DNA replication helicase/nuclease 2), endogenous (protein, UniProt P51530 1-1060)
chain: MEQLNELELLMEKSFWEEAELPAELFQKKVVASFPRTVLSTGMDNRYLVLAVNTVQNKEGNCEKRLVITASQSLENKELCILRNDWCSVPVEPGDIIHLEGDCTSDTWIIDKDFGYLILYPDMLISGTSIASSIRCMRRAVLSETFRSSDPATRQMLIGTVLHEVFQKAINNSFAPEKLQELAFQTIQEIRHLKEMYRLNLSQDEIKQEVEDYLPSFCKWAGDFMHKNTSTDFPQMQLSLPSDNSKDNSTCNIEVVKPMDIEESIWSPRFGLKGKIDVTVGVKIHRGYKTKYKIMPLELKTGKESNSIEHRSQVVLYTLLSQERRADPEAGLLLYLKTGQMYPVPANHLDKRELLKLRNQMAFSLFHRISKSATRQKTQLASLPQIIEEEKTCKYCSQIGNCALYSRAVEQQMDCSSVPIVMLPKIEEETQHLKQTHLEYFSLWCLMLTLESQSKDNKKNHQNIWLMPASEMEKSGSCIGNLIRMEHVKIVCDGQYLHNFQCKHGAIPVTNLMAGDRVIVSGEERSLFALSRGYVKEINMTTVTCLLDRNLSVLPESTLFRLDQEEKNCDIDTPLGNLSKLMENTFVSKKLRDLIIDFREPQFISYLSSVLPHDAKDTVACILKGLNKPQRQAMKKVLLSKDYTLIVGMPGTGKTTTICTLVRILYACGFSVLLTSYTHSAVDNILLKLAKFKIGFLRLGQIQKVHPAIQQFTEQEICRSKSIKSLALLEELYNSQLIVATTCMGINHPIFSRKIFDFCIVDEASQISQPICLGPLFFSRRFVLVGDHQQLPPLVLNREARALGMSESLFKRLEQNKSAVVQLTVQYRMNSKIMSLSNKLTYEGKLECGSDKVANAVINLRHFKDVKLELEFYADYSDNPWLMGVFEPNNPVCFLNTDKVPAPEQVEKGGVSNVTEAKLIVFLTSIFVKAGCSPSDIGIIAPYRQQLKIINDLLARSIGMVEVNTVDKYQGRDKSIVLVSFVRSNKDGTVGELLKDWRRLNVAITRAKHKLILLGCVPSLNCYPPLEKLLNHLNSEKLIIDLPSREHESLCHILGDFQRE

binding (Flag-BLM, wild type [2]): binds
binding (Flag-SENP3 [3]): binds
binding (Flag-BLM, wild type [4]): binds
B2: GNL3, endogenous (protein, UniProt Q9BVP2 1-549)
chain: T1 sequence

binding (Flag-SENP3 [5]): binds
B3: GNL3 (partner in supplementary experiments whose legends were not shown) (protein, UniProt Q9BVP2 1-549)
chain: T1 sequence
